PubChem BioAssay AID1508597, Cure First, 2020
Screen: 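Knock-downs altering ovarian cancer cell survival with or without PARP inhibitor rucaparib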 (primary screen). Cells: human ovarian carcinoma lines grown from tumours: OCI-P5x (papillary serous) and OCI-C5x (clear cell). Reagents: siRNA pool against human genes, 1.25 pmol siRNA per well. Time to read-out: 72 h or 96 h, depending on the cell culture. Conditions: rucaparib 20 µM (about IC30) or vehicle, present until read-out. Rucaparib or vehicle: Rucaparib. Cell line: OCI-C5x (clear cell). Measurement: 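Luminescent ATP-based viability assay read 72 or 96 h after transfection, depending on culture, given as normalised percent viability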. Reading the numbers: viability, normalised: higher = more viable cells remaining. Call rule: 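a well counts as a hit if its normalised viability is under 80 percent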. Calls: active = viability under 80%; inactive = viability 80% or more.
Shown is a random part of the about 2,100 reagents, under one of the conditions tested. 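Calls flag viability under 80% in either arm, not effects specific to rucaparib; the reference for percent is not stated.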 Unmarked entries are inactive. Some reagents were tested in more than one well and are listed for each. Not given: the 100% reference.

gene symbol	technical replicate	viability, normalised (%)
NCOA6 (nuclear receptor coactivator 6)	1	45.6 (active)
NCOA6 (nuclear receptor coactivator 6)	2	53.8 (active)
NCOA6 (nuclear receptor coactivator 6)	3	39.3 (active)
TNKS (tankyrase)	1	70.6 (active)
TNKS (tankyrase)	2	72.5 (active)
TNKS (tankyrase)	3	89.3
LIMK2 (LIM domain kinase 2)	1	66.2 (active)
LIMK2 (LIM domain kinase 2)	1	55.8 (active)
LIMK2 (LIM domain kinase 2)	2	68.8 (active)
LIMK2 (LIM domain kinase 2)	2	74.9 (active)
LIMK2 (LIM domain kinase 2)	3	53.1 (active)
LIMK2 (LIM domain kinase 2)	3	63.1 (active)
SCAF11 (SR-related CTD associated factor 11)	1	47.6 (active)
SCAF11 (SR-related CTD associated factor 11)	2	52 (active)
SCAF11 (SR-related CTD associated factor 11)	3	42.1 (active)
WDR5 (WD repeat domain 5)	1	53.2 (active)
WDR5 (WD repeat domain 5)	2	53.6 (active)
WDR5 (WD repeat domain 5)	3	50.5 (active)

Continued (5 carried over from the part before).
gene symbol	technical replicate	viability, normalised (%)
SCAF11 (SR-related CTD associated factor 11)	2	52 (active)
SCAF11 (SR-related CTD associated factor 11)	3	42.1 (active)
WDR5 (WD repeat domain 5)	1	53.2 (active)
WDR5 (WD repeat domain 5)	2	53.6 (active)
WDR5 (WD repeat domain 5)	3	50.5 (active)
CDKL1 (cyclin dependent kinase like 1)	1	67.6 (active)
CDKL1 (cyclin dependent kinase like 1)	2	44.9 (active)
CDKL1 (cyclin dependent kinase like 1)	3	64.5 (active)
FAAP24 (FA core complex associated protein 24)	1	40.1 (active)
FAAP24 (FA core complex associated protein 24)	2	50.5 (active)
FAAP24 (FA core complex associated protein 24)	3	50.6 (active)
TRIM24 (tripartite motif containing 24)	1	85.2
TRIM24 (tripartite motif containing 24)	1	42 (active)
TRIM24 (tripartite motif containing 24)	2	43.5 (active)
TRIM24 (tripartite motif containing 24)	2	52.2 (active)
TRIM24 (tripartite motif containing 24)	3	43.4 (active)
DDX19A (DEAD-box helicase 19A)	1	60 (active)
DDX19A (DEAD-box helicase 19A)	2	47.4 (active)
DDX19A (DEAD-box helicase 19A)	3	43 (active)
AUNIP (aurora kinase A and ninein interacting protein)	1	20.6 (active)
AUNIP (aurora kinase A and ninein interacting protein)	2	15.1 (active)
AUNIP (aurora kinase A and ninein interacting protein)	3	19.5 (active)
TSTD1 (thiosulfate sulfurtransferase like domain containing 1)	1	70 (active)
TSTD1 (thiosulfate sulfurtransferase like domain containing 1)	2	48.6 (active)
TSTD1 (thiosulfate sulfurtransferase like domain containing 1)	3	50.4 (active)
EID2 (EP300 interacting inhibitor of differentiation 2)	1	59.9 (active)
EID2 (EP300 interacting inhibitor of differentiation 2)	2	62 (active)
EID2 (EP300 interacting inhibitor of differentiation 2)	3	55.1 (active)
